Test results taken from PubChem BioAssay AID445 (National Center for Advancing Translational Sciences (NCATS), 2006).
This is one part of the list. Further columns of the screen follow, without active or inactive calls. Most of these compounds were active or inconclusive in the main read-out, so they are no random draw. The note in brackets gives the kind of curve behind each potency; many fits are weak.

test: IkB Signaling; conditions: ABC-DLBCL IkBa-CBG/CBR dual luciferase ratio (green luciferase fused to IkBa over red control in OCI-Ly3 lymphoma cells), 4 h; measured here: control luc red channel unless noted
How it was run: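 Luminescence ratio of IκBα-fused green versus native red beetle luciferase in OCI-Ly3 cells, 4 h post-doxycycline with compound; red signal alone, scaled from basal (0%) to zero light (-100%), flagged nonspecific or cytotoxic effects.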

Row | SMILES | AC50
1 | Cc1ccccc1C(=O)Nc1nnc(SCc2cc(=O)c3c(C)ccc(C)c3[nH]2)s1 | 0.794 µM [falling, full curve]
2 | CC1CCN(S(=O)(=O)c2cc(C(=O)NCc3ccc(F)cc3)n(C)c2)CC1 | 10 µM [falling, partial curve]
3 | COc1cccc(COC(=O)c2ccc(-c3nnn(Cc4ccccc4)n3)cc2)c1 | 0.398 µM [rising, full curve, poor fit]
4 | CCc1ccccc1NS(=O)(=O)c1ccc2[nH]cc(C(=O)NCc3ccco3)c(=O)c2c1 | 15.8 µM [falling, partial curve]
5 | CC(C)c1ccc(C(=O)Nc2cccc3cccnc23)cc1 | 0.398 µM [rising, full curve]
6 | CC(=O)c1ccc(NC(=O)CCc2c(C)nn(-c3ccc4nncn4n3)c2C)cc1 | 0.02 µM [rising, full curve, poor fit]
7 | CSc1ccc(CCNC(=O)c2cc3n(n2)CCCN(Cc2ccc(C)cc2)C3=O)cc1 | 12.6 µM [falling, partial curve]
8 | O=C(CCCSc1nc(-c2ccco2)cc(C(F)(F)F)n1)Nc1ccc2c(c1)OCO2 | 25.1 µM [falling, single point]
9 | O=C(Nc1sc2c(c1C(=O)NCc1ccccc1)CCCC2)c1cc(=O)c2cc(Cl)ccc2o1 | 39.8 µM [falling, single point]
10 | CCc1ccccc1N1CC(c2nc3ccccc3n2Cc2cccc(C)c2)CC1=O (configuration not stated) | 20 µM [falling, partial curve]
11 | CCOc1ccc(S(=O)(=O)NCCc2sc(-c3ccc(C)cc3)nc2C)cc1 | 0.316 µM [falling, full curve]
12 | COc1ccc(Cl)c(N2CCN(CCCNC(=O)Nc3ccc(C)cc3)CC2)c1 | 15.8 µM [falling, partial curve]
13 | O=C(Nc1cccnc1Cl)c1cc(-c2ccc(Cl)cc2)on1 | 3.98 µM [falling, partial curve, poor fit]
14 | O=c1c2ccccc2n2c(-c3ccc(F)c(F)c3)nnc2n1CCc1ccccc1 | 39.8 µM [falling, single point]
15 | CCOC(=O)c1c(S(=O)(=O)N2CCCC(C(=O)Nc3ccc(C)cc3C)C2)c(C)n(CC)c1C (configuration not stated) | 3.98 µM [falling, partial curve]
16 | O=C(CSc1nnc(Cc2cccs2)n1C1CCCCC1)N1CCCc2ccccc21 | 6.31 µM [falling, partial curve]
17 | CCOc1ccc(S(=O)(=O)Nc2ccc3c(c2)c(C(C)=O)c(C)n3S(=O)(=O)c2ccc(OCC)cc2)cc1 | 10 µM [falling, partial curve]

2 entries from above, as tab-separated lines:
Row	SMILES	AC50
11	CCOc1ccc(S(=O)(=O)NCCc2sc(-c3ccc(C)cc3)nc2C)cc1	0.316 µM [falling, full curve]
16	O=C(CSc1nnc(Cc2cccs2)n1C1CCCCC1)N1CCCc2ccccc21	6.31 µM [falling, partial curve]
